Data taken from PubChem BioAssay AID1117319 (Southern Research Institute, 2015).
The campaign covered roughly 260,000 compounds. About 1,500 (0.58%) were called active. This list was built around the results that the source calls inconclusive (neither active nor inactive); the mix of calls is not that of the screen.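 Rule for the calls: active = inhibition above a set limit at one or more doses, reproduced on every date tested; inconclusive = results disagree between test dates, or hit never tested in dose response; inactive = the rest.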

Amino acid sequences for entries named in this document (tags omitted). A change or cut given only in a name is not applied to a line headed by its entry.
UniProt P69720: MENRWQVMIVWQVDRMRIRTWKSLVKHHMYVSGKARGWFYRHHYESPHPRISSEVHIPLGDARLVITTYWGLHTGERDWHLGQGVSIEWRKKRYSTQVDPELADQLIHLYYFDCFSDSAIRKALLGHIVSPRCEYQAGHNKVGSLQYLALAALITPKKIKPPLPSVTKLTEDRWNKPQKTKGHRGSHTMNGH
UniProt P69721: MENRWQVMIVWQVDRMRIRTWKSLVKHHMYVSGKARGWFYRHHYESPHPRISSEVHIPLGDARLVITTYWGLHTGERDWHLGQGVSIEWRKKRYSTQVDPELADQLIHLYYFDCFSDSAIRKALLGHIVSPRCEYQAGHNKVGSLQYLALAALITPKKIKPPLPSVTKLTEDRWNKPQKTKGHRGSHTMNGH
UniProt P69722: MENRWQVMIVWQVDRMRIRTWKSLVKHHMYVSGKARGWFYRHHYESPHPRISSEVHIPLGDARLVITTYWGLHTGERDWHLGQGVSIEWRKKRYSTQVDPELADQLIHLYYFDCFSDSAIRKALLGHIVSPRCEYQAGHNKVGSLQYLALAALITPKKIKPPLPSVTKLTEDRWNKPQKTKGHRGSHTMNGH
UniProt P69723: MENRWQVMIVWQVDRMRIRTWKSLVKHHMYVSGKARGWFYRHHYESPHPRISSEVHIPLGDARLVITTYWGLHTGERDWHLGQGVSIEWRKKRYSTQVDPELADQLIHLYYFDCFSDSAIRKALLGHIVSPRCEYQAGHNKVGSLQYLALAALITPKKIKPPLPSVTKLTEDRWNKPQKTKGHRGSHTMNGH
UniProt Q9HC16: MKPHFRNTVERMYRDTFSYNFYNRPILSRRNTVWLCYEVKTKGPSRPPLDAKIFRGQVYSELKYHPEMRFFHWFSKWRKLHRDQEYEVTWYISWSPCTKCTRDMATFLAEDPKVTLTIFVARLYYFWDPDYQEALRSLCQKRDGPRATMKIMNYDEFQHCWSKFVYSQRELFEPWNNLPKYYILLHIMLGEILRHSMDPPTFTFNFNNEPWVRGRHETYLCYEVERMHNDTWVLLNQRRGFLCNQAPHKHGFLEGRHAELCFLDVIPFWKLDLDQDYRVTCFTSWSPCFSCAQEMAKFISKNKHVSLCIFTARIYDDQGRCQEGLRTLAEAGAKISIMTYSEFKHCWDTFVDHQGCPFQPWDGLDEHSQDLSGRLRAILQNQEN

What follows are compounds tested against Virion infectivity factor (Human immunodeficiency virus type 1 group M subtype B (isolate BH10)) + Virion infectivity factor (Human immunodeficiency virus type 1 group M subtype B (isolate BRU/LAI)) + Virion infectivity factor (Human immunodeficiency virus type 1 group M subtype B (isolate PCV12)) + Virion infectivity factor (Human immunodeficiency virus type 1 group M subtype B (isolate HXB2)) + DNA dC->dU-editing enzyme APOBEC-3G (Homo sapiens) (UniProt P69720+P69721+P69722+P69723+Q9HC16) (assay: inhibitors of Vif binding to APOBEC3G peptide, primary screen, biochemical, TR-FRET, GST-Vif 1-94, biotin-A3G peptide, dose response retest (AID 1117319;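 note: Vif residues 1-94 fused to GST binding biotinylated APOBEC3G peptide 110-148; 0% = full assay without inhibitor and 100% = GST in place of GST-Vif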)). Conditions: stronger effect = higher value.

Q: `COc1ccc(CCNC(=O)c2ccc([N+](=O)[O-])cc2)cc1` was tested. Which inhibition did it give?
A: inconclusive: 45.1%

Q: For `CCCc1ccc(C(=O)N2CCN(c3ccccc3OCC)CC2)cc1`, which inhibition is on record?
A: inconclusive: 39.3%

Q: `COc1cc(NC(=O)c2cc(-n3cnnc3)ccc2Cl)cc(OC)c1` was tested. Which inhibition did it give?
A: inconclusive: 54.3%

Q: For `O=C(CSc1c2c(nc3cc(Cl)ccc13)CCCC2)NCc1ccco1`, which inhibition is on record?
A: inconclusive: 36.6%

Q: How did the inhibition turn out when `CN(C(=O)c1ccccc1C(=O)OCC(=O)Nc1ccccc1)c1ccccc1` was run?
A: inactive: -8.92%

Q: Which inhibition does the source give for `CCc1ccc(NC(=O)c2ccc3c(c2)C(=O)N(Cc2ccco2)C3=O)cc1` here?
A: inconclusive: 52.7%

Q: For `Cc1cc(C(F)F)n2nc(C(=O)Nc3ccccc3Br)nc2n1`, which inhibition is on record?
A: inconclusive: 50.4%

Q: How did the inhibition turn out when `Cc1ccccc1NC(C)C(=O)N/N=C/c1c[nH]c2ccccc12` (stereo unspecified) was run?
A: inconclusive: 33.9%

Q: With `O=C(Nn1cnnc1)c1ccc(F)c(S(=O)(=O)N2CCCCC2)c1` as the compound, how does the inhibition read?
A: inconclusive: 49.4%

Q: `COC(=O)[C@@]1(Cc2ccc(OC)cc2)[C@H]2c3cc(C(=O)N(C)C)n(CCSCCO)c3C[C@H]2CN1C(=O)c1ccccc1` was tested. Which inhibition did it give?
A: inconclusive: 58.1%

Q: For `c1nnc2c3c4c(sc3ncn12)CCCC4`, which inhibition is on record?
A: inconclusive: 34.5%

Q: How did the inhibition turn out when `Cc1cccc(N2CCN(C(=O)C3CCN(c4nnc(-n5cccc5)s4)CC3)CC2C)c1` (stereo unspecified) was run?
A: inconclusive: 47.4%

Q: With `CCN(CC)c1ccc(NC(=O)CSc2nc(C)cc(=O)[nH]2)cc1` as the compound, how does the inhibition read?
A: inconclusive: 35%

Q: For `CC(=O)c1cc2c(cc1NC(=O)CN1CCN(c3ccc(F)cc3)CC1)OCO2`, which inhibition is on record?
A: inconclusive: 61.5%

Q: How did the inhibition turn out when `O=C1N(Cc2cccnc2)C[C@@H]2C[C@@H](c3ccccc3C(F)(F)F)N3CCC[C@@]123` was run?
A: inconclusive: 43.1%

Q: For `CCC(=O)NC(NCC1CCCO1)C(Cl)(Cl)Cl` (stereo unspecified), which inhibition is on record?
A: inconclusive: 49.3%

Q: With `Cc1ccc(OCCCC(=O)Nc2ccc(N3CCOCC3)cc2)c(C)c1` as the compound, how does the inhibition read?
A: inconclusive: 43%

Q: How did the inhibition turn out when `CC(NC(=O)c1c(O)c2ccccc2n(C)c1=O)c1ccccc1` (stereo unspecified) was run?
A: inconclusive: 54.1%

Q: How did the inhibition turn out when `COc1cccc(C(=O)NC2CCN(CC(=O)Nc3nccs3)CC2)c1` was run?
A: inconclusive: 54.9%

Q: With `CCOC(=O)c1nnc2c(Br)c(-c3ccccc3)nn2c1C` as the compound, how does the inhibition read?
A: inconclusive: 38.1%

Q: For `Cc1ccc(-n2ncc3c(Nc4c(C)n(C)n(-c5ccccc5)c4=O)ncnc32)c(C)c1`, which inhibition is on record?
A: inconclusive: 41.8%

Q: With `O=C(Nc1cccc(S(=O)(=O)N2CCOCC2)c1)c1c2c(nc3ccccc13)CCC2` as the compound, how does the inhibition read?
A: inconclusive: 38.4%

Q: For `COc1ccc(O)c(-c2[nH]ncc2C(=O)c2ccccc2C)c1`, which inhibition is on record?
A: inconclusive: 34.8%

Q: `O=S(=O)(N/N=C\c1cccn1-c1ccccc1)c1ccc2ccccc2c1` was tested. Which inhibition did it give?
A: inconclusive: 34%

Q: Which inhibition does the source give for `COCCCNC(=O)Cc1coc2ccc3ccccc3c12` here?
A: inconclusive: 33.6%

Q: With `CCN(CC)S(=O)(=O)c1cccc(-c2cn3cc(C)ccc3n2)c1` as the compound, how does the inhibition read?
A: inconclusive: 50.8%

Q: Which inhibition does the source give for `CC1(C)COCN1S(=O)(=O)c1ccc(C(=O)Nc2nnc(-c3ccc(Cl)s3)o2)cc1` here?
A: inconclusive: 57.1%

Q: `O=C(O)C1C2CCC(O2)C1C(=O)Nc1ccc(O)cc1` (stereo unspecified) was tested. Which inhibition did it give?
A: inconclusive: 58.4%

Q: With `Cc1ccc(-c2nnc(Nc3ccc(C(=O)N(C)C)cc3)c3ccccc23)cc1S(=O)(=O)NC(C)(C)CO` as the compound, how does the inhibition read?
A: inconclusive: 57.9%

Q: How did the inhibition turn out when `Cc1ccc(F)cc1NC(=O)N1CCN(C2c3ccccc3-c3ccccc32)CC1` was run?
A: inconclusive: 33.1%

Q: How did the inhibition turn out when `C=CCn1c(SCC(=O)Nc2cc(C)on2)nc2sc3c(c2c1=O)CCCC3` was run?
A: inconclusive: 52.6%

Q: How did the inhibition turn out when `COc1ccccc1NC(=S)NNC(=O)c1ccc(Cl)cc1Cl` was run?
A: inconclusive: 36.6%

Q: How did the inhibition turn out when `O=C(NCCN1CCN(C(=O)c2cc3ccccc3oc2=O)CC1)c1cc2ccccc2oc1=O` was run?
A: inconclusive: 34.8%

Q: How did the inhibition turn out when `COC(=O)C1=COC(C)C2CN3CCc4c([nH]c5cc(OC)c(OC)cc45)C3CC12` (stereo unspecified) was run?
A: inconclusive: 55.9%

Q: `O=C(CC1SC2=NCCN2C1=O)Nc1ccccc1` (stereo unspecified) was tested. Which inhibition did it give?
A: inconclusive: 21.1%

Q: Which inhibition does the source give for `O=c1c(O[C@@H]2O[C@H](CO)[C@@H](O)[C@H](O)[C@H]2O)c(-c2ccc(O)c(O)c2)oc2cc(O)cc(O)c12` here?
A: inactive: -5.92%

Q: For `COc1ccc(C(=O)NC(=S)Nc2nnn(C)n2)cc1`, which inhibition is on record?
A: inconclusive: 39.6%

Q: `COc1ccc(/C=C/C(=O)Nc2ccc3c(c2)OCCO3)cc1OC` was tested. Which inhibition did it give?
A: inconclusive: 42.5%

Q: How did the inhibition turn out when `Cc1ccc(Nc2cccccc2=O)cc1` was run?
A: inconclusive: 13.5%

Q: How did the inhibition turn out when `NC(N)=Nc1ccc(N=C(N)N)cc1` was run?
A: inconclusive: 37.5%

Q: With `O=S(=O)(NCc1cn2ccccc2n1)c1ccccc1F` as the compound, how does the inhibition read?
A: inconclusive: 35.2%

Q: With `CCc1cccc(CC)c1NC(=S)Nc1ccccc1` as the compound, how does the inhibition read?
A: inconclusive: 52%

Q: How did the inhibition turn out when `O=C(O)c1cccc(N2C(=O)c3ccc(C(=O)c4cccc([N+](=O)[O-])c4)cc3C2=O)c1` was run?
A: inconclusive: 44.3%

Q: Which inhibition does the source give for `O=C(NCc1ccco1)c1cc(-c2ccccn2)nc2ccccc12` here?
A: inconclusive: 33.1%

Q: Which inhibition does the source give for `CCC(c1nnnn1Cc1ccco1)N(CCc1ccccc1)Cc1cc2ccc(OC)cc2[nH]c1=O` (stereo unspecified) here?
A: inconclusive: 42.5%

Q: Which inhibition does the source give for `Cc1ccc(NC2OC(C(O)CO)C(O)C2O)cc1[N+](=O)[O-]` (stereo unspecified) here?
A: inconclusive: 34.3%

Q: For `O=c1c2c([nH]c3ccccc13)C(=C1CCCC1)CC2`, which inhibition is on record?
A: inconclusive: 58.7%

Q: Which inhibition does the source give for `O=C1C(CCS(=O)c2ccccc2)C(=O)N(c2ccccc2)N1c1ccccc1` (stereo unspecified) here?
A: inconclusive: 40.7%

Q: Which inhibition does the source give for `CC(/C=N/NC(=O)c1cccnc1)=C\c1ccco1` here?
A: inactive: 28.6%

Q: Which inhibition does the source give for `CC(/C=N/NC(=O)Cc1cccs1)=C\c1ccco1` here?
A: inactive: 12.2%

Q: `Cc1cccc2cc(CN(CCCO)C(=O)Nc3ccc(Cl)cc3)c(=O)[nH]c12` was tested. Which inhibition did it give?
A: inactive: 13.2%

Q: Which inhibition does the source give for `CSc1ccccc1NC(=O)C1CCCO1` (stereo unspecified) here?
A: inconclusive: 37.9%

Q: With `O=[N+]1C2=C(CCCC2)N([O-])C12CCCC2` as the compound, how does the inhibition read?
A: inconclusive: 42.3%

Q: How did the inhibition turn out when `Fc1ccc(C2=Nn3c(Cc4ccccc4)nnc3SC2)cc1` was run?
A: inconclusive: -1.67%

Q: How did the inhibition turn out when `N#Cc1c(N)oc(-c2ccc3c(c2)OCO3)c1-c1ccc2c(c1)OCO2` was run?
A: inconclusive: 43.3%

Q: How did the inhibition turn out when `Cc1ccc(C)c(C(=O)COC(=O)c2ccc(Br)o2)c1` was run?
A: inconclusive: 38.3%
